# Source: article PMC12339401
# B1: WIPI2 (endogenous) (protein, UniProt Q9Y4P8 1-454)
# chain: MNLASQSGEAGAGQLLFANFNQDNTEVKGASRAAGLGRRAVVWSLAVGSKSGYKFFSLSSVDKLEQIYECTDTEDVCIVERLFSSSLVAIVSLKAPRKLKVCHFKKGTEICNYSYSNTILAVKLNRQRLIVCLEESLYIHNIRDMKVLHTIRETPPNPAGLCALSINNDNCYLAYPGSATIGEVQVFDTINLRAANMIPAHDSPLAALAFDASGTKLATASEKGTVIRVFSIPEGQKLFEFRRGVKRCVSICSLAFSMDGMFLSASSNTETVHIFKLETVKEKPPEEPTTWTGYFGKVLMASTSYLPSQVTEMFNQGRAFATVRLPFCGHKNICSLATIQKIPRLLVGAADGYLYMYNLDPQEGGECALMKQHRLDGSLETTNEILDSASHDCPLVTQTYGAAAGKGTYVPSSPTRLAYTDDLGAVGGACLEDEASALRLDEDSEHPPMILRTD
# Molecular target: BNIP3(1–158)-GST (human)
# Assay: pull-down; beads precoated with GST, NIX-GST or BNIP3-GST, incubated overnight with HeLa cell lysate, SDS–PAGE and western blot for WIPI proteins; only the target purified
binder,measurement,value
B1,binding,binds

# These are yes or no findings as the source states them, for the method shown. Binding seen in cells or lysates may run through a third protein. Binding calls can cover weak binding; strength is not graded here.
